From PMC9765618
These are yes or no findings as the source states them, for the method shown. Binding seen in cells or lysates may run through a third protein. Binding can be weak; no strength is given.

Protein sequences, listed by entry. Tags and fused reporters are not part of them. Lines headed by an entry give the natural chain unless they say otherwise; changes in a name come on top. Chains listed by the source or under a name are the forms on record and can include a tag or linker.
Flag-tagged human Sp100A (P23497, form named): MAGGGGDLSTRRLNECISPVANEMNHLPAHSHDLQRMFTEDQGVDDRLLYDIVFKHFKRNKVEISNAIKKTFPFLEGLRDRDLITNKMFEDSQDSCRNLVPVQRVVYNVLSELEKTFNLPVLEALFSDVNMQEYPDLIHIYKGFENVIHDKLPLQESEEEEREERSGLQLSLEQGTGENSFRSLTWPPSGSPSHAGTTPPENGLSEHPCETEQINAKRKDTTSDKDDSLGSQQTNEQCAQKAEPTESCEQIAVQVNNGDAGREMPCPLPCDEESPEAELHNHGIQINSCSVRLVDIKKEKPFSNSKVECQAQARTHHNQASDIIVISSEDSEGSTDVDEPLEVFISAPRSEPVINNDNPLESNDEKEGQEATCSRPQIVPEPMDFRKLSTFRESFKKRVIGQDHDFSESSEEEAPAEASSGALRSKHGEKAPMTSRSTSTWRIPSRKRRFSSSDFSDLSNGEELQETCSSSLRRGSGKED
UniProt P14618: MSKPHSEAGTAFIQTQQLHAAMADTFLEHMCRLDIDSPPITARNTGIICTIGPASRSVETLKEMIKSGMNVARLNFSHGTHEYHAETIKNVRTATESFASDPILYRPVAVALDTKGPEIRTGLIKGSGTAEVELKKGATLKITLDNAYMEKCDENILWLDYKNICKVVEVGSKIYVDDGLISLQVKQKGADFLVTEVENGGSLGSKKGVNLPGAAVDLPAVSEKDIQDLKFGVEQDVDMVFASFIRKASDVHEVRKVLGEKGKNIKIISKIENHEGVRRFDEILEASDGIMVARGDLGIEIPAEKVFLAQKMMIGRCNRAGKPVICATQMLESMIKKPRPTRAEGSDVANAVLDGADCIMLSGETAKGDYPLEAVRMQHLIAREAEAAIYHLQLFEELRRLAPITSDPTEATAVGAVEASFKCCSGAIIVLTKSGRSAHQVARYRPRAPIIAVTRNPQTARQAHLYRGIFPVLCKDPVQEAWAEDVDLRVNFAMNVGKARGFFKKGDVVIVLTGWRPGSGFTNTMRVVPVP

Experiments:
[1] = biological target: Flag-Sp100A NLS mutant (human) (UniProt P23497); assay: co-IP; cotransfected Flag and HA constructs; whole-cell lysates immunoprecipitated with anti-Flag antibody, blotted with anti-HA and anti-Flag
[2] = biological target: Flag-tagged human Sp100A (human) (UniProt P23497); assay: as above

Row | Substance | binding [1] | binding [2]
1 | HA-tagged human PKM2 (from UniProt P14618 1-531) (enzyme) | binds | –
2 | truncated HA-PKM2, B1 domain (aa 116 to 218) (from UniProt P14618) (domain or fragment) | – | binds
